Experimental data taken from patent US9981059B2 (Glytech, Inc., priority 2013, dated 2018).

Experiment: general procedure: Fmoc solid-phase peptide synthesis; Rink amide PEGA resin; HCTU/DIPEA
Details: conjugation step

**Q.** Which conjugation yield does the source give for C(DiGlcNAc)-(RATARAEA)2 here?
**A.** Its conjugation yield is “yield 68%”.
